Test results taken from PMC7771250 (ACS Infectious Diseases, 2020).

Experiments:
[1] = system: SARS-CoV-2 spike pseudotyped particle (PP); assay: microbe, parasite or virus in culture; format: cell-based; settings: Severe acute respiratory syndrome coronavirus 2, HEK-293T, 48 h, read-out: PP EC50
[2] = system: SARS-CoV-2; settings: cited from earlier work

For `CN(C)CCCN1c2ccccc2CCc2ccc(Cl)cc21` [clomipramine], the EC50 [1] is listed as 8.28 ± 0.46 µM and the EC50 [2] is listed as 5.93 µM.
